Experimental data from article PMC8274477.
No constants are given. Whether binding was seen depends on the method and setting. Some results given as binding are weak or reduced against the parent protein; the word gives no strength.

Sequences of proteins named here, by UniProt entry; tags and fusion partners are left off. Residues count along the entry.
UniProt P46937: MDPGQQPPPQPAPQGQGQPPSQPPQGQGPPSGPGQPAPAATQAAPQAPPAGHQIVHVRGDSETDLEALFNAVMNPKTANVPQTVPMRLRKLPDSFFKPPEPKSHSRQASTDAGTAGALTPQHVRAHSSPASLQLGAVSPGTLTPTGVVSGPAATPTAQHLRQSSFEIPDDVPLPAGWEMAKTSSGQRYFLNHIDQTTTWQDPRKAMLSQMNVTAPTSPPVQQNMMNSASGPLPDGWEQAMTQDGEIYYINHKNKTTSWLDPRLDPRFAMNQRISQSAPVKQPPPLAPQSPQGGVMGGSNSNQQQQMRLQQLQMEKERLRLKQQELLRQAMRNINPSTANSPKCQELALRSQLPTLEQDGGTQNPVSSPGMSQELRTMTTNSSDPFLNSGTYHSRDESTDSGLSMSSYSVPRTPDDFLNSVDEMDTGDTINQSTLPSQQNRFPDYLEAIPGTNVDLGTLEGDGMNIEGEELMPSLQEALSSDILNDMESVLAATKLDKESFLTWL
UniProt P15502, residues 27-786: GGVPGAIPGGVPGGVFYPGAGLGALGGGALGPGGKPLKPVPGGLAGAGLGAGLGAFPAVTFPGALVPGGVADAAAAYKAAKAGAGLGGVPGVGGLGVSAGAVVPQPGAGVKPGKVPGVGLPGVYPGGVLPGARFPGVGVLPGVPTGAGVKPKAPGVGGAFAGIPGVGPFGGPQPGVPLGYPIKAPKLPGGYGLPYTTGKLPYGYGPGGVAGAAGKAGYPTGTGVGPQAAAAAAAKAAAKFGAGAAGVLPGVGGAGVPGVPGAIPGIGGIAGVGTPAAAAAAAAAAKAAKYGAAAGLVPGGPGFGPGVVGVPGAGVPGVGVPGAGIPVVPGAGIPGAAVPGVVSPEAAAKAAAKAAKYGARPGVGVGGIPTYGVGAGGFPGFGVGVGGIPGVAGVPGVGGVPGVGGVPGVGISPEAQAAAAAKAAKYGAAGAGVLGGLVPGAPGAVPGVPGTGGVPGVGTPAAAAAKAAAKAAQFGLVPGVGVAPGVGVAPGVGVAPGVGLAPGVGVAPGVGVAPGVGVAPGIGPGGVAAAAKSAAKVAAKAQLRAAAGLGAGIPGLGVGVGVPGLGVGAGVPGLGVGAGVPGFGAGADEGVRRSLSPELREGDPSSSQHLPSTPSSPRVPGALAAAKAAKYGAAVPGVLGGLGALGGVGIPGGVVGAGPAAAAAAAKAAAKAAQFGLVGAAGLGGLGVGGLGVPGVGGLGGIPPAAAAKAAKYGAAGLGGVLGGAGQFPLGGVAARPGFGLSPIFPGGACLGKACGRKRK
UniProt O94911: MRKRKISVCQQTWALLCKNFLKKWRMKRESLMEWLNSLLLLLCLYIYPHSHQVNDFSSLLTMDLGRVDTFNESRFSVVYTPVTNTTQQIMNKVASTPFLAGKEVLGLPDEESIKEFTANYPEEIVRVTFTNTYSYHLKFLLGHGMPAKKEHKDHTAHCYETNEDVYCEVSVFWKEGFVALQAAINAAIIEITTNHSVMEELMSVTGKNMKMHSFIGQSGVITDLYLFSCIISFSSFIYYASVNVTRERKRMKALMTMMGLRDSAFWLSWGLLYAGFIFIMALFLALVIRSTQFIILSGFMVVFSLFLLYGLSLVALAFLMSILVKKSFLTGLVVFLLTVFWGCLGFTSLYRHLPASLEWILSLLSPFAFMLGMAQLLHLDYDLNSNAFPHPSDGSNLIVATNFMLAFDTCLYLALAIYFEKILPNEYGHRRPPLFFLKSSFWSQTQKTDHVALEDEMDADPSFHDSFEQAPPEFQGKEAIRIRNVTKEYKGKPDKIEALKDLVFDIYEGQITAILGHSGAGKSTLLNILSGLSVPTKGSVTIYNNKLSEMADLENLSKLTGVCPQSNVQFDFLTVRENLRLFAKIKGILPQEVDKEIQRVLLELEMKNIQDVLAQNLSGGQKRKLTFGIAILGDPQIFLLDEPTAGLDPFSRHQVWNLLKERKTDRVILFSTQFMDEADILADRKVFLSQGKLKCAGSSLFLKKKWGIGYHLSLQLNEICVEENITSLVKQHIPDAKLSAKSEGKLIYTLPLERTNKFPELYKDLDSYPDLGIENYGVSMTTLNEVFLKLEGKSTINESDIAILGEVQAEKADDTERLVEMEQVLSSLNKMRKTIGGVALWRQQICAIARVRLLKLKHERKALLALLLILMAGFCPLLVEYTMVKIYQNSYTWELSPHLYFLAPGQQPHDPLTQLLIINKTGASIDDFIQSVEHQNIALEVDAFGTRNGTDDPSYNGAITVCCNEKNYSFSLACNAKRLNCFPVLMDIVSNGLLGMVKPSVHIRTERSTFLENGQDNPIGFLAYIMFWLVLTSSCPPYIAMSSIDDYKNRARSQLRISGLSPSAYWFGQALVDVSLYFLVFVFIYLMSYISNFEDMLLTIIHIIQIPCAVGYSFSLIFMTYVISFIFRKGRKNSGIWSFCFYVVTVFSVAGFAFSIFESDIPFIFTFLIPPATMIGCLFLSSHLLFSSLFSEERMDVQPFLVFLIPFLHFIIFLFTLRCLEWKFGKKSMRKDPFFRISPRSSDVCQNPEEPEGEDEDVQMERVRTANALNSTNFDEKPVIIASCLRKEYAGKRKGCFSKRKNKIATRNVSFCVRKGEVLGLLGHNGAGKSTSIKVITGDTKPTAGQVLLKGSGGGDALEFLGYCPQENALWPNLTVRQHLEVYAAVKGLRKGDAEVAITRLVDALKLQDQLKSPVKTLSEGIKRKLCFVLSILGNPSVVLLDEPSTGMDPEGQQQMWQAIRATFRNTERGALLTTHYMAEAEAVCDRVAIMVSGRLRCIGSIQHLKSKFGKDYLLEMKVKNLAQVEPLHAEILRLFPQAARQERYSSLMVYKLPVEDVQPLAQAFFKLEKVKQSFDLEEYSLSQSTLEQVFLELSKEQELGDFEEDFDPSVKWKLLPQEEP
UniProt P26378: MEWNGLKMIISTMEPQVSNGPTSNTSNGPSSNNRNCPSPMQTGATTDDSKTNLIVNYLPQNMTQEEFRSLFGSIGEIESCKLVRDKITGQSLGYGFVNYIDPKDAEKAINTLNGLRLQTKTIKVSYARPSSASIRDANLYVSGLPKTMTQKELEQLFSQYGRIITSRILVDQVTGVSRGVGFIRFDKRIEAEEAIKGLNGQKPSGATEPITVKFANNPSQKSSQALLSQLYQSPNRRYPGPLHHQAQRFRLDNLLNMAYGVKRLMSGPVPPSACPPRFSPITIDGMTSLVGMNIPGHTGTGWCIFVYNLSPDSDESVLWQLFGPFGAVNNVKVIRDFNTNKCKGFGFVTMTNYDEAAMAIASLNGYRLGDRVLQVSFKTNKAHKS

Columns and labels:
Assay in all cases: peptide or protein array; HuProt human proteome microarray; 5 ug/5 ml biotin-labelled LUBAC or OTULIN in solution, 1 h at room temperature; Cy5-streptavidin, scanned at 635 nm; BSA as negative control; hits: Z-score >= 3 and I_(Mean_Ratio) >= 1.4; both purified
[1] = molecular target: YAP1 (human) (UniProt P46937)
[2] = molecular target: T1, SKIL (human) (UniProt P12757)
T1 sequence: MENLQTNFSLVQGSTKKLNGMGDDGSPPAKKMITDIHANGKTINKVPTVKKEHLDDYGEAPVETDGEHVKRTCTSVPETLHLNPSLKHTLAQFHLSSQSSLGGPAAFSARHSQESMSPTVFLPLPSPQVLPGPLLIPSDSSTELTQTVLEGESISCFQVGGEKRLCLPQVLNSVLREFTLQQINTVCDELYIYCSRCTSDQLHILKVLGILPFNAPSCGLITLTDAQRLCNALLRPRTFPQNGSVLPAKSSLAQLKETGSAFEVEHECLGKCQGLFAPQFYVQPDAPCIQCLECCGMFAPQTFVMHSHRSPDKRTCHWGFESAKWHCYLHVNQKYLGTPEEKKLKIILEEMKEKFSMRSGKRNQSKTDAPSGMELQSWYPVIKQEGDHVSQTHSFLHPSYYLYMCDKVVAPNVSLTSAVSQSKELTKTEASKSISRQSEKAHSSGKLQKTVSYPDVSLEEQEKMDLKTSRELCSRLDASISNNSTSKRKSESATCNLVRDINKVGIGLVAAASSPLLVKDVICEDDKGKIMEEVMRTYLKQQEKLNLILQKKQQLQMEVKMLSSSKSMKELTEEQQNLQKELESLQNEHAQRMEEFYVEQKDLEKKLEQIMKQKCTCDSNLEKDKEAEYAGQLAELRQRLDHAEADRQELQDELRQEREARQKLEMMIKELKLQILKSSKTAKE

[3] = molecular target: T2, STARD7 (human) (UniProt Q9NQZ5)
T2 sequence: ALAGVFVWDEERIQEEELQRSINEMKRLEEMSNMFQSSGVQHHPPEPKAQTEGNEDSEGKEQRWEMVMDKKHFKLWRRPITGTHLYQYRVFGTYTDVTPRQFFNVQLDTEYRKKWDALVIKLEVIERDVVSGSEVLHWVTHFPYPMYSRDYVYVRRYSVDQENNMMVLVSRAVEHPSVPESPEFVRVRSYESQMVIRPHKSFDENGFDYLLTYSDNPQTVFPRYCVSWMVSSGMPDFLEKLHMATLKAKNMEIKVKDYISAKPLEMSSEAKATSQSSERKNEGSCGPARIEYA

[4] = molecular target: T3, ACSL6 (human) (UniProt Q9UKU0)
T3 sequence: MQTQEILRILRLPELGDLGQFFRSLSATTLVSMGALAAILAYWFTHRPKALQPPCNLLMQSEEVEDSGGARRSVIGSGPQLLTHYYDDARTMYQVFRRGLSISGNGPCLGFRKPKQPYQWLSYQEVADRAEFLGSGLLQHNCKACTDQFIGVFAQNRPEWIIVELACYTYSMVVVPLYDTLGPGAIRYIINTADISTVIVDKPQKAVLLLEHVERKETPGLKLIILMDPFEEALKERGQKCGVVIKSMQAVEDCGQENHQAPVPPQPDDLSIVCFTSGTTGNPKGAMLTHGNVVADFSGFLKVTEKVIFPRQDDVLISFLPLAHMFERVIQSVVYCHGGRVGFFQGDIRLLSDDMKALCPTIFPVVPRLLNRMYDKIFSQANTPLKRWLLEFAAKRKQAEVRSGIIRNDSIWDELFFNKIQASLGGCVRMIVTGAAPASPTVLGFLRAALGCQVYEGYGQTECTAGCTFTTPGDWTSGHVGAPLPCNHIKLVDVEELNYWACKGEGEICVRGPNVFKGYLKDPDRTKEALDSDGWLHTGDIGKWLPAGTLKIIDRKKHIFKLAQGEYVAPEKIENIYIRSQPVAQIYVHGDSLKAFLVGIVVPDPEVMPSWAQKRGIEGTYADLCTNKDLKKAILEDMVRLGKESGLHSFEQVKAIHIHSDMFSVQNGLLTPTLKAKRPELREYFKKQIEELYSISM

[5] = molecular target: ELN (human) (UniProt P15502)
[6] = molecular target: ABCA8 (human) (UniProt O94911)
[7] = molecular target: ELAVL4 (human) (UniProt P26378)

Measured: binding

OTULIN (OTU deubiquitinase with linear linkage specificity, FAM105B), His-tagged, biotin-labelled (from UniProt Q96BN8 1-352) (enzyme)
binds: all assays above

linear ubiquitin chain assembly complex (LUBAC), purified as HIS-tagged HOIP with the subunit HOIL-1, biotin-labelled (from UniProt Q96EP0 1-1072; Q9BYM8 1-510)
binds: all assays above
